Common to all, as to assay: co-IP; HEK 293T cells transfected with the indicated plasmids, lysed in Co-IP buffer (1% NP40, 150 mM NaCl, 20 mM Tris pH 7.4, 1 mM EDTA, 10% glycerol, protease inhibitors); 1 mg lysate with primary antibody, then protein A sepharose; SDS-PAGE and immunoblotting
On the technique in general: In western blotting, separated proteins are transferred to a membrane and probed.

Sequences of proteins named here, by UniProt entry; tags and fusion partners are left off.
UniProt P63208: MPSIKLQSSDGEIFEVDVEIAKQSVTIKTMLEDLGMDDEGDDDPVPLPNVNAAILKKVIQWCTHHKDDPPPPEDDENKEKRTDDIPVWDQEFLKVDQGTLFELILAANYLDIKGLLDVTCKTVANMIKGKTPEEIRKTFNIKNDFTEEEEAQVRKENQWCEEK

One assay deals with T1, GFP-FBXO31 WT (UniProt Q5XUX0).
T1 sequence: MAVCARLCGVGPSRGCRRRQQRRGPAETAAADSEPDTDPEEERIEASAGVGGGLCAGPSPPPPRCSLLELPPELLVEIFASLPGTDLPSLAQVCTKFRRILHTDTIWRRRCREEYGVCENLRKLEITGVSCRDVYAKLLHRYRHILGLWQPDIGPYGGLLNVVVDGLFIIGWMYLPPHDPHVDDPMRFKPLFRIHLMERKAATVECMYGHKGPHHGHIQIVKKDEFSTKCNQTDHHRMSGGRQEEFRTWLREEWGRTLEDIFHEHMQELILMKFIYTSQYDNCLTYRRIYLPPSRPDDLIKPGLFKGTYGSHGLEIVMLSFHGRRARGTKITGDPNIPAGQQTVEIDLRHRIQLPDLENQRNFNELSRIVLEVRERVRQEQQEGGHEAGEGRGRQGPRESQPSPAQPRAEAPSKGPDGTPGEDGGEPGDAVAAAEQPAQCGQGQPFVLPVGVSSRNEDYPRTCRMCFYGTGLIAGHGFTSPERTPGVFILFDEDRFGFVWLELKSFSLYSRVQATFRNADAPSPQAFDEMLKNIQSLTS

Another assay deals with T2, mycPar6c (UniProt Q9NPB6).
T2 sequence: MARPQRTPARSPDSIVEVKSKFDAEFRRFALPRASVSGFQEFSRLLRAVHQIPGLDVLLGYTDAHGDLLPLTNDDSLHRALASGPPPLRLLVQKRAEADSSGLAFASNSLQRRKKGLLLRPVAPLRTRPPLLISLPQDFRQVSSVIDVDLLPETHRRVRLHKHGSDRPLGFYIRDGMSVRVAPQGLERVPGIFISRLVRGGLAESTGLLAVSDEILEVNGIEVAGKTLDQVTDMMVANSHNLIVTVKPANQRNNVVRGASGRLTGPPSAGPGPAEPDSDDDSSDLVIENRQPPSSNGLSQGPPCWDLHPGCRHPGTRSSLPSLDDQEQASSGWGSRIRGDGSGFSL

The target of another assay is T3, Flag-tagged FBXO31 (UniProt Q5XUX0).
T3 sequence: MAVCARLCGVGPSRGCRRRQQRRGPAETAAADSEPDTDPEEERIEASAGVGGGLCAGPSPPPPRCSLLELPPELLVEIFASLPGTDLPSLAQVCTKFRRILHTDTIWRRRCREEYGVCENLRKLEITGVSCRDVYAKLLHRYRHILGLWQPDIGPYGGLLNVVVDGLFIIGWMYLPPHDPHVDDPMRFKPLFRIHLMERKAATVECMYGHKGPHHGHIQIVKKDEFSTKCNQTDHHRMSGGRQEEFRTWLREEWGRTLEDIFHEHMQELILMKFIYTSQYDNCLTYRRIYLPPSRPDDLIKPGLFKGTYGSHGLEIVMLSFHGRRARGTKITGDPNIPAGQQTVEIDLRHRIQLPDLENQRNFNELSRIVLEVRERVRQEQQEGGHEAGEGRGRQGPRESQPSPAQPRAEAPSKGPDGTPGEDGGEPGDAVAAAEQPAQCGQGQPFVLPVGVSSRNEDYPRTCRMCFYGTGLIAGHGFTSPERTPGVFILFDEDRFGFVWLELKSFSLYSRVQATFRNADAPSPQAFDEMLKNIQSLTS

Results are given in words; binding and its absence hold for the method and conditions named. Binding seen in cells or lysates may run through a third protein. Some results given as binding are weak or reduced against the parent protein; the word gives no strength. Sequences can lack the tags named with a protein.

mycSkp1 (from UniProt P63208 1-163): the binding entry with GFP-FBXO31 WT was “binds”.

B1: Flag-tagged FBXO31 (protein, UniProt Q5XUX0 1-539)
chain: MAVCARLCGVGPSRGCRRRQQRRGPAETAAADSEPDTDPEEERIEASAGVGGGLCAGPSPPPPRCSLLELPPELLVEIFASLPGTDLPSLAQVCTKFRRILHTDTIWRRRCREEYGVCENLRKLEITGVSCRDVYAKLLHRYRHILGLWQPDIGPYGGLLNVVVDGLFIIGWMYLPPHDPHVDDPMRFKPLFRIHLMERKAATVECMYGHKGPHHGHIQIVKKDEFSTKCNQTDHHRMSGGRQEEFRTWLREEWGRTLEDIFHEHMQELILMKFIYTSQYDNCLTYRRIYLPPSRPDDLIKPGLFKGTYGSHGLEIVMLSFHGRRARGTKITGDPNIPAGQQTVEIDLRHRIQLPDLENQRNFNELSRIVLEVRERVRQEQQEGGHEAGEGRGRQGPRESQPSPAQPRAEAPSKGPDGTPGEDGGEPGDAVAAAEQPAQCGQGQPFVLPVGVSSRNEDYPRTCRMCFYGTGLIAGHGFTSPERTPGVFILFDEDRFGFVWLELKSFSLYSRVQATFRNADAPSPQAFDEMLKNIQSLTS
As for B1, the binding entry in the assay with mycPar6c is on record as “binds”.

B2: mycPar6c (protein, UniProt Q9NPB6 1-346)
chain: MARPQRTPARSPDSIVEVKSKFDAEFRRFALPRASVSGFQEFSRLLRAVHQIPGLDVLLGYTDAHGDLLPLTNDDSLHRALASGPPPLRLLVQKRAEADSSGLAFASNSLQRRKKGLLLRPVAPLRTRPPLLISLPQDFRQVSSVIDVDLLPETHRRVRLHKHGSDRPLGFYIRDGMSVRVAPQGLERVPGIFISRLVRGGLAESTGLLAVSDEILEVNGIEVAGKTLDQVTDMMVANSHNLIVTVKPANQRNNVVRGASGRLTGPPSAGPGPAEPDSDDDSSDLVIENRQPPSSNGLSQGPPCWDLHPGCRHPGTRSSLPSLDDQEQASSGWGSRIRGDGSGFSL
With B2, the binding entry with Flag-tagged FBXO31 is listed as “binds”.

The values above are taken from paper PMC3585373.
